At least one peptide structure holds a part that was inferred or is arguable (an end, a ring closure or a residue). Non-standard residues stand in square brackets, D forms with d. Residues, ends and D or L forms follow the SMILES beside them. No end group written: not given here. Abu = CC[C@H](N)C(=O)O
What was measured:
[1] = biological target: activation of Factor X by Factor VII and tissue factor (Homo sapiens, UniProt P13726); details: as indicated in WO90/03390 Table 1; cited from earlier work
[2] = biological target: TF/FVII/FX complex (FVII-induced FX activation) (Homo sapiens, UniProt P13726); test: two-stage chromogenic assay: inhibition of FVII-induced FX activation by synthetic peptides; assay type: biochemical
Procedure: The inhibition of FVII function by a number of synthetic peptides including the above linear peptide was determined in a two-stage chromogenic assay as described (A. Kumar et al., 1991, J. Biol. Chem., 266@ 915-921). This consisted of incubation of peptide dilutions with mixtures of TF and FX, followed by addition of […] and determination of the rate of FVII-induced FX activation by kinetic measurement of FX amidolysis of a chromogenic substrate.

By UniProt entry, the sequences of proteins in these tests, tags left out. Residues count along the entry.
UniProt P13726, 33-295, species assumed: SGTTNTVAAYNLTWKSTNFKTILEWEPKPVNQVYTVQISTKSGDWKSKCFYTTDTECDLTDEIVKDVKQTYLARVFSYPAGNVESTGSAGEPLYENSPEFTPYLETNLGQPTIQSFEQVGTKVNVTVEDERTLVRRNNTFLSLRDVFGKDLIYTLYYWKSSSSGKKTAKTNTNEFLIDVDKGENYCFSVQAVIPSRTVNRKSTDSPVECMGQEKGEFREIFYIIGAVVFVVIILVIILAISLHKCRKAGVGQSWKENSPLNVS

Compound | activity in inhibition of activation of Factor X by Factor VII and tissue factor [1] | mode of inhibition established through kinetic means [2]
C[C@@H](O)[C@H](NC(=O)CNC(=O)[C@@H](NC(=O)[C@H](Cc1c[nH]cn1)NC(=O)[C@H](CC(=O)O)NC(=O)[C@@H](N)CO)[C@@H](C)O)C(=O)N[C@@H](CCCCN)C(=O)N[C@@H](CCCNC(=N)N)C(=O)N[C@@H](CO)C(=O)N[C@@H](CS)C(=O)O (H-SDHTGTKRSC-OH) | active | –
ETHKDDQLI[Abu]VNENGG[Abu]EQY[Abu]SDHTGTKRS[Abu]R[Abu]HEGYSLLADGVS[Abu]T [Example 1, Abu^91,98,102,112,114,127-[FVII Glu^82 -Thr^128]] | – | not an active-site inhibitor of FVII but inhibits the TF/FVII/FX complex formation
